In PMC3527510, “Bin2 Is a Membrane Sculpting N-BAR Protein That Influences Leucocyte Podosomes, Motility and Phagocytosis” (PLoS ONE, 2012):
These are yes or no findings as the source states them, for the method shown. Binding seen in cells or lysates may run through a third protein. Some binding calls cover weakened binding; strength is not graded here. For part of these data: Where a sequence is shown, tags or fusion partners need not be part of it.

Sequences of proteins named here, by UniProt entry; tags and fusion partners are left off.
UniProt Q14155: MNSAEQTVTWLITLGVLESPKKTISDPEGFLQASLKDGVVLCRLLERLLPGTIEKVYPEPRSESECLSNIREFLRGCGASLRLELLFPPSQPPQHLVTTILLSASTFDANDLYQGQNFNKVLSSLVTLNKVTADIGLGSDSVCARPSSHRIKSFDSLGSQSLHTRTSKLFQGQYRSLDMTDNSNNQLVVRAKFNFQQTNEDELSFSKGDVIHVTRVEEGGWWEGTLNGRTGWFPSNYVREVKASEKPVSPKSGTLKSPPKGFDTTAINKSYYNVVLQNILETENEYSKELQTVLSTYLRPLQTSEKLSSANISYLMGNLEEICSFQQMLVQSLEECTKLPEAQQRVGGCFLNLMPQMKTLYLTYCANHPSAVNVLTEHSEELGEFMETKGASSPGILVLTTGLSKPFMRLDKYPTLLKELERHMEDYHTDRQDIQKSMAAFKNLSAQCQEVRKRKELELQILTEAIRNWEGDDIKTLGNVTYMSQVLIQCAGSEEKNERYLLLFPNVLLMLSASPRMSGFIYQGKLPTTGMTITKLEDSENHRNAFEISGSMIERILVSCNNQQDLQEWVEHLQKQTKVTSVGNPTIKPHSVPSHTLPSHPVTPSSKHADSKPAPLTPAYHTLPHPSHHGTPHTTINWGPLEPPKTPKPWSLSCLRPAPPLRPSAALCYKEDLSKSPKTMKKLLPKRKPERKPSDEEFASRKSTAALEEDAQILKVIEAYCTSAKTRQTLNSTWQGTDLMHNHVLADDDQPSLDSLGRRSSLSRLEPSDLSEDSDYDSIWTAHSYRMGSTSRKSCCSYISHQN
UniProt Q99961: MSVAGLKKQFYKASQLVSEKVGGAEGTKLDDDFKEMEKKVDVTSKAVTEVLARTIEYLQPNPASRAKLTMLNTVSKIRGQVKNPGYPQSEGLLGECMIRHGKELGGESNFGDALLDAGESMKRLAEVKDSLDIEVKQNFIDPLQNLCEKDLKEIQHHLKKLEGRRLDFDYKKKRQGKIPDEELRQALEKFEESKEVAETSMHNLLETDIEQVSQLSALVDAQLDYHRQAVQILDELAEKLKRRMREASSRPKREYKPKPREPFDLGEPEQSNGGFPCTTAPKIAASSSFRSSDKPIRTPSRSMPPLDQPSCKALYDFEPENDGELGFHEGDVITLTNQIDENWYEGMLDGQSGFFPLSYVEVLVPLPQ
UniProt O35179: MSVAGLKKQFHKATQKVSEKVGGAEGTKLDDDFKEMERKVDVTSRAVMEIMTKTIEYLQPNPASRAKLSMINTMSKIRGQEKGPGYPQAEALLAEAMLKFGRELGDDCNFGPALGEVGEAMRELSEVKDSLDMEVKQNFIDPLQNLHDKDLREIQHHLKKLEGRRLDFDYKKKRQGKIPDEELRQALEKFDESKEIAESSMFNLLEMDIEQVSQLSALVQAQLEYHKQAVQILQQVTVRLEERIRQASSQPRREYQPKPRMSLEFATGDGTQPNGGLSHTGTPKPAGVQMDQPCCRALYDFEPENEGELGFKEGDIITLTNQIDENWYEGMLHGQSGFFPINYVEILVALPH
UniProt O35180: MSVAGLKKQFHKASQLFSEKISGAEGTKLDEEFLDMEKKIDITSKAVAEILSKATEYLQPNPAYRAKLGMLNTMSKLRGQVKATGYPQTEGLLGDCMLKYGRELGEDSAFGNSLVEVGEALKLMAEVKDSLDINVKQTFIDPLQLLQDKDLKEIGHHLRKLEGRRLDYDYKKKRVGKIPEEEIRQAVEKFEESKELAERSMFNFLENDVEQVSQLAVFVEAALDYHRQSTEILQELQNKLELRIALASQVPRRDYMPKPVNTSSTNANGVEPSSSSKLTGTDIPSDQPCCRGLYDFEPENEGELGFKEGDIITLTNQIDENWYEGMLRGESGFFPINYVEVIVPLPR

T1: Bin2, endogenous in human B cells (721.221) (human (endogenous in 721.221)) (UniProt Q9UBW5)
T1 sequence: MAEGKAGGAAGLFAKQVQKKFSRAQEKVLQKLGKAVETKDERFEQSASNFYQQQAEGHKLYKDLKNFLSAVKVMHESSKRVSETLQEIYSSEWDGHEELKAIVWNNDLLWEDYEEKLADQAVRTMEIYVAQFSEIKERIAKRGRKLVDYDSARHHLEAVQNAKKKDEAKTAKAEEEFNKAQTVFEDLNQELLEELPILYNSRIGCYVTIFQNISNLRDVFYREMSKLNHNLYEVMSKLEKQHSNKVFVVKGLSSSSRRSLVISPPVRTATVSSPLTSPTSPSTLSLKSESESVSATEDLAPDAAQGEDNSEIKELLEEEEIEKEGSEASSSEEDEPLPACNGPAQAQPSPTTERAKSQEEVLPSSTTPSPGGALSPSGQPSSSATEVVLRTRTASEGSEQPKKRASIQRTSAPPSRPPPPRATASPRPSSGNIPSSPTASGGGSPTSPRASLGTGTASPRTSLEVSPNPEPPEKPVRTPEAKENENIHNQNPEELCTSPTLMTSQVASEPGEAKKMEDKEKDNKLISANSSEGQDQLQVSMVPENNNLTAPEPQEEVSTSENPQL

T2: Bin2, endogenous in rat mast cells (RBL·2H3) (rat (endogenous in RBL·2H3)) (UniProt Q68FR2)
T2 sequence: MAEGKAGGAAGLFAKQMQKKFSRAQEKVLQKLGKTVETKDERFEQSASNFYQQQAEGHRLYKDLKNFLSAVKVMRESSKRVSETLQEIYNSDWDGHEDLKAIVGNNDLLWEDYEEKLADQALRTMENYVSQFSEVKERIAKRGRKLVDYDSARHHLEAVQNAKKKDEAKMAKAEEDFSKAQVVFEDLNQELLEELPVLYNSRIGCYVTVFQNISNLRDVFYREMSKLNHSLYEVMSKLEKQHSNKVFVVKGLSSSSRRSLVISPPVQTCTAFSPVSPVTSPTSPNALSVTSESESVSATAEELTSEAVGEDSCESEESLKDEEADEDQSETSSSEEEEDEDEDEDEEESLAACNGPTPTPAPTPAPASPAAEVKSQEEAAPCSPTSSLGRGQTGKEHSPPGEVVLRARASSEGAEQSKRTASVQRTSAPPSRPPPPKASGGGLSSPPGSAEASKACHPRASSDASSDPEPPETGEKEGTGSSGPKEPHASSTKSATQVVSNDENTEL

T3: GST-hBin2-CT (C-terminal region of human Bin2, amino acids 237-565) (human) (UniProt Q9UBW5)
T3 sequence: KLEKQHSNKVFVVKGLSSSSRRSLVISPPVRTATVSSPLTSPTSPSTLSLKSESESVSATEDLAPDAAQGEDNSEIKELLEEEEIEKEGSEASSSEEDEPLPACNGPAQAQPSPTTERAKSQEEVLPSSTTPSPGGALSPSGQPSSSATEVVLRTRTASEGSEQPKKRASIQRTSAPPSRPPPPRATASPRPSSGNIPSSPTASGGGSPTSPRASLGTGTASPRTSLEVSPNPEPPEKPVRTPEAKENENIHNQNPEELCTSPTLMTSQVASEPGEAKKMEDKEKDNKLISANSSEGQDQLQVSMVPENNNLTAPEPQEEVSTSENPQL

B1: α-PIX, endogenous in human B cells (721.221) (protein, UniProt Q15052 1-776)
chain: MNPEEQIVTWLISLGVLESPKKTICDPEEFLKSSLKNGVVLCKLINRLMPGSVEKFCLDPQTEADCINNINDFLKGCATLQVEIFDPDDLYSGVNFSKVLSTLLAVNKATEDQLSERPCGRSSSLSAANTSQTNPQGAVSSTVSGLQRQSKTVEMTENGSHQLIVKARFNFKQTNEDELSVCKGDIIYVTRVEEGGWWEGTLNGRTGWFPSNYVREIKSSERPLSPKAVKGFETAPLTKNYYTVVLQNILDTEKEYAKELQSLLVTYLRPLQSNNNLSTVEVTSLLGNFEEVCTFQQTLCQALEECSKFPENQHKVGGCLLSLMPHFKSMYLAYCANHPSAVNVLTQHSDELEQFMENQGASSPGILILTTNLSKPFMRLEKYVTLLQELERHMEDTHPDHQDILKAIVAFKTLMGQCQDLRKRKQLELQILSEPIQAWEGEDIKNLGNVIFMSQVMVQYGACEEKEERYLMLFSNVLIMLSASPRMSGFIYQGKIPIAGTVVTRLDEIEGNDCTFEITGNTVERIVVHCNNNQDFQEWLEQLNRLIRGPASCSSLSKTSSSSCSAHSSFSSTGQPRGPLEPPQIIKPWSLSCLRPAPPLRPSAALGYKERMSYILKESSKSPKTMKKFLHKRKTERKPSEEEYVIRKSTAALEEDAQILKVIEAYCTSANFQQGHGSSTRKDSIPQVLLPEEEKLIIEETRSNGQTIMEEKSLVDTVYALKDEVRELKQENKRMKQCLEEELKSRRDLEKLVRRLLKQTDECIRGESSSKTSILP
B2: Git2, endogenous in human B cells (721.221) (protein, UniProt Q14161 1-759)
chain: MSKRLRSSEVCADCSGPDPSWASVNRGTFLCDECCSVHRSLGRHISQVRHLKHTPWPPTLLQMVETLYNNGANSIWEHSLLDPASIMSGRRKANPQDKVHPNKAEFIRAKYQMLAFVHRLPCRDDDSVTAKDLSKQLHSSVRTGNLETCLRLLSLGAQANFFHPEKGNTPLHVASKAGQILQAELLAVYGADPGTQDSSGKTPVDYARQGGHHELAERLVEIQYELTDRLAFYLCGRKPDHKNGQHFIIPQMADSSLDLSELAKAAKKKLQSLSNHLFEELAMDVYDEVDRRETDAVWLATQNHSALVTETTVVPFLPVNPEYSSTRNQGRQKLARFNAHEFATLVIDILSDAKRRQQGSSLSGSKDNVELILKTINNQHSVESQDNDQPDYDSVASDEDTDLETTASKTNRQKSLDSDLSDGPVTVQEFMEVKNALVASEAKIQQLMKVNNNLSDELRIMQKKLQTLQSENSNLRKQATTNVYQVQTGSEYTDTSNHSSLKRRPSARGSRPMSMYETGSGQKPYLPMGEASRPEESRMRLQPFPAHIGRSALVTSSSSLPSFPSTLSWSRDESARRASRLEKQNSTPESDYDNTPNDMEPDGMGSSRKGRQRSMVWPGDGLVPDTAEPHVAPSPTLPSTEDVIRKTEQITKNIQELLRAAQENKHDSYIPCSERIHVAVTEMAALFPKKPKSDMVRTSLRLLTSSAYRLQSECKKTLPGDPGSPTDVQLVTQQVIQCAYDIAKAAKQLVTITTKENNN
B3: β-PIX, endogenous in rat mast cells (RBL·2H3) (protein, UniProt O55043 1-646)
chain: MTDNANSQLVVRAKFNFQQTNEDELSFSKGDVIHVTRVEEGGWWEGTHNGRTGWFPSNYVREIKPSEKPVSPKSGTLKSPPKGFDTTAINKSYYNVVLQNILETEHEYSKELQSVLSTYLWPLQTSEKLSSANTSYLMGNLEEISSFQQVLVQSLEECTKSPEAQQRVGGCFLSLMPQMRTLYLAYCANHPSAVSVLTEHSEDLGEFMETKGASSPGILVLTTGLSKPFMRLDKYPTLLKELERHMEDYHPDRQDIQKSMTAFKNLSAQCQEVRKRKELELQILTEPIRSWEGDDIKTLGSVTYMSQVTIQCAGSEEKNERYLLLFPNLLLMLSASPRMSGFIYQGKLPTTGMTITKLEDSENHRNAFEISGSMIERILVSCNNQQDLHEWVEHLQRQTKVTSVSNPTIKPHSVPSHTLPSHPLTPSSKHADSKPVALTPAYHTLPHPSHHGTPHTTISWGPLEPPKTPKPWSLSCLRPAPPLRPSAALCYKEDLSRSPKTMKKLLPKRKPERKPSDEEFAVRKSTAALEEDAQILKVIEAYCTSAKTRQTLNSSSRKESAPQVLLPEEEKIIVEETKSNGQTVIEEKSLVDTVYALKDEVQELRQDNKKMKKSLEEEQRARKDLEKLVRKVLKNMNDPAWDETNL
B4: Git2, endogenous in rat mast cells (RBL·2H3) (protein, UniProt Q66H91 1-759)
chain: MSKRLRSNDVCADCSGPDPSWASVNRGTLICDECCSVHRSLGRHISQVRHLKHTPWPPTLLQMVETLYSNGANSIWEHSLLDPASVMSGRRKANPQDKVHPNKAEFIRAKYQMLAFVHRLPCRDDDSVTAKDLSKQLHSSVRTGNLETCLRLLSLGAQANFFHPEKGSTPLHVASKAGQILQAELLAVYGADPGTHDSSGKTPVDYARQGGHRELAERLVEIQYELTDRLAFYLCGRKPDHKNGQHFIIPQMADSSLDLSELAKAAKKKLQSLSNHLFEELAMDVYDEVDRRETDAVWLATQNHSTLVTETTVVPFLPVNPEYSSTRNQGRQKLARFNAHEFATLVIDILSDAKRRQQGSPLSRSKDNVELILRTVSNQHSTESQDNDQPDYDSVASDEDTDVETRASRTNRQKSLDSDLSDGPVTVQEFMEVKHALVASEAKRQQLMKVNNNLSGELRIMQKKLQTLQSENSSLRRQATASACQVQTASDHKDTVSHSSLKRRPSARGSRPMSMYETGSGQKPYLPMGEANHPEESRTRLQPFPTHIGRSALVTSSSSLPSFPSTLSWSRDESTRRASRLEKQNSTPESDYDNTAYDPEPDDTVSGRKGRQRSMLWQGDGPLPDTAEPHAVPSPALPSTEDVIRKTEQITKNIQELLRAAQENKHDSYIPCSERIHAAVTEMAALFPKKPKSDTVRTSLRLLTASAYRLQSECRKALPGDSSLPTDVQLVTQQVIQCAYDIAKAAKQLVTITTKENSS
B5: α-PIX, endogenous in rat mast cells (RBL·2H3) (protein, UniProt Q5XXR3 1-772)
chain: MNPEERVVTWLISLGVLESPKKTICDPEEFLKSSLKNGVVLCKLISRLLPGSVEKYCQEPQTEADCIDNINDFLKGCATLQVEVFEPDDLYSGANFSKVLNTLLAVNKATEDQLSERPCGRSSSLSATTSSQTNPQAAVPSTTPEQQSEEKAAEMTENGSHQLIVKARFNFKQTNEDELSVCKGDIIYVTRVEEGGWWEGTLNGRTGWFPSNYVREIKPSERPLSPKAVKGFDTAPLTKNYYTVVLQNILDTEKEYAKELQSLLVTYLRPLQSNNNLSTVEFTCLLGNFEEVCTFQQTLCQALEECSKSPENQHKVGGCLLNLMPHFKSMYLAYCANHPSAVNVLTQHSDDLERFMENQGASSPGILILTTSLSKPFMRLEKYVTLLQELERHMEDTHPDHQDILKAIIAFKSLMGQCQDLRKRKQLELQILSEPIQAWEGDDIKTLGNVIFMSQVVMQHGACEEKEERYFLLFSSVLIMLSASPRMSGFMYQGKVPIAGMVVTRLDEIEGNDCTFEITGSTVERIVVHCNNNQDFQEWMEQLNRLTKGPASCSSLSKTSSSSCSTHSSFSSTGQPRGPLEPPQIIKPWSLSCLRPAPPLRPSAALGYKERMSYILKESSKSPKTMKKFLHKRKTERKTSEEEYVIRKSTAALEEDAQILKVIEAYCTSASFQQGTRKDSVPQVLLPEEEKLIIEETRSNGQTIIEEKSLVDTVYALKDEVKELKQENKKMKQCLEEELKSRKDLEKLVRKLLKQTDESIRAESSSKTSILQ

molecular target: T1, Bin2, endogenous in human B cells (721.221) (human (endogenous in 721.221)); assay: co-IP; anti-Bin2 polyclonal antibody (BACT) on protein A:G Sepharose with lysates of human B cells (721.221) or rat mast cells (RBL·2H3), 4°C, 3 h; 20 mM HEPES, 150 mM NaCl, 1 mM DTT, 0.3% Triton X-100, 1% NP-40; Coomassie bands identified by LC-MS/MS; control with pre-immune serum

| Molecule | binding |
| --- | --- |
| β-PIX, endogenous in human B cells (721.221) (from UniProt Q14155 1-803) | binds |
| B1 | binds |
| B2 | binds |

molecular target: T2, Bin2, endogenous in rat mast cells (RBL·2H3) (rat (endogenous in RBL·2H3)); assay: as above

| Molecule | binding |
| --- | --- |
| B3 | binds |
| B4 | binds |
| B5 | binds |

molecular target: T3, GST-hBin2-CT (C-terminal region of human Bin2, amino acids 237-565) (human); assay: pull-down; GST-Bin2-CT on glutathione-sepharose beads with cytosolic extracts of cells or rat tissues, 4°C, 40 min; buffer H with detergents; bands identified by LC-MS/MS and western blot; only the target purified

| Molecule | binding |
| --- | --- |
| Endophilin A2, endogenous in human B cells (721.221) (from UniProt Q99961 1-368) | binds |
| Endophilin A1, endogenous in rat brain (from UniProt O35179 1-352) | binds |
| Endophilin A3, endogenous in rat testis (from UniProt O35180 1-347) | binds |
